These are yes or no findings as the source states them, for the method shown. In cells and extracts the contact can be indirect. These calls come from enrichment with a bait or labelling near it, and not all partners need be listed. For some of these results: A no says only that the protein was not detected with the bait.
T1: Nrl1(1–159aa)-TAP (S. pombe) (UniProt O42975)
T1 sequence: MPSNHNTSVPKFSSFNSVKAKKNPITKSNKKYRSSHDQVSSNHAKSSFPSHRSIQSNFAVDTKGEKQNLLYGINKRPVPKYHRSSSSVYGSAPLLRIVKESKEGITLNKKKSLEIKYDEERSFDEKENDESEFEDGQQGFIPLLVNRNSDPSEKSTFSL

T2: Nrl1(1–502aa)-TAP (S. pombe) (UniProt O42975)
T2 sequence: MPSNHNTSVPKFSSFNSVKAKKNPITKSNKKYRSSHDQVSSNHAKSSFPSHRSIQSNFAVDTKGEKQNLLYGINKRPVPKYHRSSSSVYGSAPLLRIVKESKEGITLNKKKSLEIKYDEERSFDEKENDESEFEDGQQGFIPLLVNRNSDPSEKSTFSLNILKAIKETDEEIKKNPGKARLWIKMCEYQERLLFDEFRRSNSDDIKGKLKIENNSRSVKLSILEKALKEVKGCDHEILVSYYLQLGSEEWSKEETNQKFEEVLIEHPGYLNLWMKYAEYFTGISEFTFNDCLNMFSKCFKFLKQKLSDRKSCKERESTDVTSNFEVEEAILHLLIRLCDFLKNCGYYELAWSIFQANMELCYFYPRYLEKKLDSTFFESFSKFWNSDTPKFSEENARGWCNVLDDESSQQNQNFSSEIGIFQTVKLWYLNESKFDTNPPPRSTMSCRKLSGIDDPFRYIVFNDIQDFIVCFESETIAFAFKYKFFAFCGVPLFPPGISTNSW


These molecules were tested against T1, Nrl1(1–159aa)-TAP (S. pombe) (assay: affinity purification with mass spectrometry; tandem affinity purification of TAP-tagged Nrl1 forms from S. pombe extracts (IgG Sepharose, TEV cleavage, Calmodulin Sepharose; IPP150 buffer: 50 mM Tris pH 8.0, 150 mM NaCl, 10% glycerol, 0.1% NP-40), eluates analysed by LC-MS/MS; proteins of the mock purification excluded).

Row | binding | Molecule
1 | binds | ATP-dependent RNA helicase Mtl1 (endogenous) (S. pombe (endogenous in S. pombe))
2 | no binding | Ctr1 (endogenous) (S. pombe (endogenous in S. pombe))
3 | no binding | Ntr2 (endogenous) (S. pombe (endogenous in S. pombe))
4 | no binding | Syf3 (endogenous) (protein, UniProt P87312 1-674) MTSEAPRVKNKNPAPIQISAEQLLREAVERQDVAFVPPKINITDLEELQEFQGRKRKEFEDAIRRNRLAMGHWMRYGQWELDQKEFARARSVFERALDVDSTYIPLWLKYIECEMKNRNINHARNLFDRAVTQLPRVDKLWYKYVYMEEMLGNITGCRQVFERWLKWEPDENCWMSYIRMERRYHENERARGIYERFVVVHPEVTNWLRWARFEEECGNAANVRQVYLAAIDALGQEFLNERFFIAFAKFEIRQKEYERARTIFKYAIDFMPRSKSMELYKEYTHFEKQFGDHLGVESTVLDKRRLQYEKLLKDSPYDYDTWLDLLKLEESAGDINTIRETYEKAIAKVPEVVEKNAWRRYVYIWLNYCLFEEIDVKDVDRARKVYQEALKLIPHKKFTFAKLWLMYAMFELRQRKIDVARKTLGRALGMCPKPKLFRGYIEFEDAIKQFDRCRILYEKWILYDPEACAPWLGYAALETKLGDSDRARALYNLAVNQPILETPELVWKAYIDFEFEEMEYGKARSIYQQLLRTAPHVKVWISFANFEIAHLEDDDEEPPNEEVASPTAVVRARNVFENALAHLRQQGLKEERVVLLEAWKQFEAMHGTEDTRKHVSSLMPQVVKKRRRLEDGSFEEYLDYLFPDTATDQGDKMRKMLELSRKWKEEMAKKKLEA
5 | no binding | ubiquitin-protein ligase E4 Prp19 (endogenous) (protein, UniProt O14011 1-488) MFCSISGETPKEPVISRVSGNVYEKRLIEQVIRETSKDPVTQQECTLEDLVPVKVPDFVRPRPPSATSLPALLSLFQEEWDSVALEQFELRRNLTETKQELSTALYSLDAALRVISRLTKERDEAREALAKFSDNIGTVSSKTIEVQEVEMGESDDQLKTSLRSTVEKTFQELSSKRKRTKLQPKWATDDAVSQLLQATPSTILENLETESTTSFFPSPENSSFVLCLHKDELLCLDIQSNSTLKIFEGSALACCWLTSSKIAVATADAISIFEFPVSSSGLQSVGEPTSSIPIDEKVNFLQAHPSGEYLLAASNEKCYIFSLKSQVYNITVAQHITSLAVHPDGNLFVAGLENGELRFFETSSGNELTKFGPHSSPVKTLQFGENGYWLVVTTNDDSDIFIWDLRKSELVQKIPLQTKVAAVSLDITSQLLVSSDGETLYVHIYVKSSKSWRCMSQTHVSSISNLVWLNELHQLLFSTSNGAILRLG

The molecules below were run against T2, Nrl1(1–502aa)-TAP (S. pombe) in the same assay as above.

Row | Molecule | binding
6 | ATP-dependent RNA helicase Mtl1 (endogenous) (S. pombe (endogenous in S. pombe)) | binds
7 | Taf5 (endogenous) (protein, UniProt O13282 1-643) MSATNGPQPQDLNRIVLDYLAKKGYSRTEAMLRLEASGSGVSVEEKLKSIEETPDAYTHTYTILRDWVDSSLELYKAELHRILFPIFVHSYLNLLSQDHYEAAKQFYELFKDDHTDLHDFDVKNLKSLSLPSHVAEDRTAQQYRQNKYQLHFSRITFDLLLHFLFENVSNGGSIIIKLINQHIDIHIVPGRPTVLENAKVINEQEGITGQSFERGDAQLQPVKLQQMPMDKEMEKIVEMDLEEEDMMHQNDPNNQSPKLLKEFRKLHEPNAEDAPSRDYIPLPPHKGVDILSEVEAVKDWSKRLHLGPRASLPSVCMYTFHHTNNNMNCAEFSPDSTMIACGFQESYIRLWSIKADKKSLPKSTSVEDSDGSVRLLSHSGPVYGTTFSPDNKYLLSCSEDASARLWSVDTKTALVAYKGHTGPVWDVAFGPFGHYFATASHDQTAQLWSCDHIYPLRVFAGHLSDVDCVTFHPNSAYVLTGSSDKTCRLWDVHRGHSVRVFNGHTQPVTAVAIAPDGHTMASADSEGLIHLWDIGTGRRIKTMRGHRGNIYSLSFSRESTVLVSGGSDCTVRAWDVFKTNYNNPVSSSLTGSVVTPFSAKTSTFNEVNWSTSPDQMVALYTKQTPIFNVSFTRRNLCLAISVS | binds weakly
8 | Taf6 (endogenous) (protein, UniProt O74462 1-452) MSLTVWNIESIKDVAEMLGIGNLADEPAAAIAMDLEYRIHQVVQEATKFMVHSKRTVLTSADISSALRTLNVEPLYGFNNSRPLEFHEAAVGAGQNSLYYLDDEEVDFEKIINAPLPKVPRNISYSAHWLAIEGVQPAIPQNPTPSDHTVGEWASKGTSGVMPGASTAAKEARNGVTSMDNVEIKPLVRHVLSKELQLYFERITSALLDETNVELRDAALSSLRDDPGLHQLLPYFIMFLSDSVTRNLGNLVVLTTLMHMAWALLDNPNLFVEPYVQQLMPSILTCLVAKRLGSDPNNHEHYALRDLAAFLLGIVCDRFGNVYYTLKPRVTRTALKAFLDNTKPYSTHYGAIKGLKTMGKEAIRVLVVPNIKVYEVLVRKTLEKGNEEEIYEANKCMDALYDALLLLRDDQLPNQRTLPPNASGLLEKNVGSLMAEKIMKENDTSLLLGLLE | binds weakly
9 | Nhp2 (endogenous) (protein, UniProt Q9P7H0 1-154) MAKDKKDHKHSGSTEDEYDSYLPALMPIAKPLAPKKLNKKMMKTVKKASKQKHILRGVKEVVKAVRKGEKGLVILAGDISPMDVISHIPVLCEDNNVPYLYTVSKELLGEASNTKRPTSCVMIVPGGKKKDMSKVEEYKESYEEIIKEVPALEV | binds weakly

Next, values leading:

Row | binding | Molecule
10 | binds weakly | Utp14 (endogenous) (S. pombe (endogenous in S. pombe))
11 | binds weakly | Taf12 (endogenous) (protein, UniProt O13722 1-450) MNGQHSSPGTPVQRPSAGPVNQAQFSQQRTNQLTSLLHTMTMYQQLAQNVGLNTPQGQVYLLQAQTIRRQLQGHAQSGQLPNQQLLQQLQSNGALQQGTPEPSNTRPRPQLNAQEQTMLLVRHRQLQTAQNYLTEMKEALGRIKNELSTNERLDTSAREALVKQESELTVKIAQFTAAISNGIRSIQQLQNRQASSANGNNTGTSTPVNASTDTRKSTASTPQLQQTQAQANAPQQRINPETSSVPETPVGVSAANVSNESTELATSATQQSGLANNVEKSQTPSYMSANHLPKVDSKSPIPFSVPPSRATLTGGYASGSIGLSTPGLSRAPHYELDNGNRLLSKRKLHDLLQQIDSEEKIEPEVEELLLEIADEFVESVTNFACRLAKHRKSDTLDVRDVQLHLERNWNIRLPGFASDDIVKSARKTGPTPSYQQKQNAIGTAKSLNKD
12 | binds weakly | Taf9 (endogenous) (protein, UniProt Q09869 1-163) MSSPGISDESIKGPKDVRLIHLILSSLGVPSYSQTVPLQLLTFAHRYTQQLIQDSQVYAEHSRGQNAPISVEDVRLAVASQINHSFTGPPPKEFLLELAMERNRKPLPQIQPSYGFRLPPEKYCLTQPNWIVSNETQQNQPKEENSSDSRMEEDKLDFSVKSE
13 | binds | ubiquitin-protein ligase E4 Prp19 (endogenous) (protein, UniProt O14011 1-488) MFCSISGETPKEPVISRVSGNVYEKRLIEQVIRETSKDPVTQQECTLEDLVPVKVPDFVRPRPPSATSLPALLSLFQEEWDSVALEQFELRRNLTETKQELSTALYSLDAALRVISRLTKERDEAREALAKFSDNIGTVSSKTIEVQEVEMGESDDQLKTSLRSTVEKTFQELSSKRKRTKLQPKWATDDAVSQLLQATPSTILENLETESTTSFFPSPENSSFVLCLHKDELLCLDIQSNSTLKIFEGSALACCWLTSSKIAVATADAISIFEFPVSSSGLQSVGEPTSSIPIDEKVNFLQAHPSGEYLLAASNEKCYIFSLKSQVYNITVAQHITSLAVHPDGNLFVAGLENGELRFFETSSGNELTKFGPHSSPVKTLQFGENGYWLVVTTNDDSDIFIWDLRKSELVQKIPLQTKVAAVSLDITSQLLVSSDGETLYVHIYVKSSKSWRCMSQTHVSSISNLVWLNELHQLLFSTSNGAILRLG

From publication PMC8268110
